Data published in PubChem BioAssay AID1487 (National Center for Advancing Translational Sciences (NCATS), 2009).
This is one part of the list. The main result of the screen is listed elsewhere. These columns were measured beside it and carry no call. The list favours compounds with an active or inconclusive main result. Potencies come from curve fits of mixed quality, noted in brackets.

Assay: qHTS Assay for Modulators of Lamin A Splicing
Conditions: HeLa LMNA splicing GFP/RFP minigene ratio, 48 h
Procedure, shortened: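 S3 HeLa cells stably expressing lamin A-EGFP splicing minigene plus DsRed2, 600 cells/well, 48 h compound exposure at 37C. Laser-scanning cytometry; analysed as GFP (500-530 nm)/RFP (575-640 nm) total intensity ratio; 0.5% DMSO vehicle.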

[1] = measured here: RFP viability control channel
[2] = measured here: GFP splicing reporter channel

With `CCOc1ccc(NC(=S)N2CCN(C/C=C/c3ccccc3)CC2)cc1` the AC50 [1] was 0.794 µM [falling, full curve, poor fit].

In the case of `COC(=O)CSC1=C(C#N)C(c2sccc2C)CC(=O)N1` (stereo not drawn), the AC50 [1] is reported as 15.8 µM [rising, partial curve].

With `O=C(NCc1ccccc1)c1ccc(C(=O)N(C2CCCCC2)C2CCCCC2)cc1` the AC50 [1] was 12.6 µM [rising, single point].

With `CN(C)S(=O)(=O)c1ccc(Cl)c(NC(=O)CN2CCc3ccccc3C2)c1` the AC50 [2] was 0.708 µM [falling, partial curve, poor fit].

With `COc1cc(/C=C/c2ccc3cccc([N+](=O)[O-])c3n2)ccc1OCC(=O)O` the AC50 [1] was 3.16 µM [rising, partial curve, poor fit].

In the case of `O=C(Nc1nccs1)c1c(O)c2cccc3c2n(c1=O)CCC3`, the AC50 [1] is reported as 10 µM [rising, partial curve].

In the case of `CC(C)(C)N=C1NN=C(c2cc3ccccc3o2)CS1`, the AC50 [1] is reported as 35.5 µM [rising, single point].

With `COc1ccc(-c2ccc(SCc3ccccn3)nn2)cc1OC` the AC50 [2] was 0.447 µM [rising, partial curve, poor fit].

In the case of `COc1ccc2c(c1)C1(C)CC(C)(C)N2C(=O)N1c1ccccc1` (stereo not drawn), the AC50 [2] is reported as 28.2 µM [rising, single point] and the AC50 [1] is reported as 20 µM [rising, single point].

With `CC1Sc2n(c3ccccc3[n+]2C)N=C1c1ccccc1` (stereo not drawn) the AC50 [1] was 11.2 µM [rising, partial curve, poor fit].

For `O=C(CSc1nc2ccccc2[nH]1)Nc1nc(-c2ccc(Br)cc2)cs1`, the AC50 [2] was 7.94 µM [rising, partial curve] and the AC50 [1] was 20 µM [rising, single point].

For `COc1ccc(-n2c(COc3ccccc3)nnc2SCC(N)=O)cc1`, the AC50 [2] was 0.708 µM [falling, full curve, poor fit] and the AC50 [1] was 4.47 µM [falling, full curve, poor fit].

With `O=c1c2[nH]c3ccccc3c2ncn1CCC1=CCCCC1` the AC50 [1] was 0.1 µM [falling, full curve].

For `COc1cc(NC(=O)Cn2nnc(-c3ccccc3N)n2)cc(OC)c1`, the AC50 [1] was 8.91 µM [rising, partial curve, poor fit].

For `Cc1ccc(-c2cc(C(=O)NCc3ccccn3)no2)cc1`, the AC50 [2] was 11.2 µM [rising, partial curve, poor fit].

With `COC(=O)CN1C(=S)N(C)C(=O)/C1=C/c1cccs1` the AC50 [2] was 11.2 µM [falling, partial curve].

With `OC(COCc1ccc2c(c1)OCO2)CN1CCC(Cc2ccccc2)CC1` (stereo not drawn) the AC50 [2] was 0.1 µM [rising, full curve, poor fit].

With `CC(=O)Nc1ccc(OCC(O)Cn2nc(C)c(Br)c2C)cc1` (stereo not drawn) the AC50 [1] was 12.6 µM [rising, partial curve, poor fit].

With `Cc1ccc(-c2nsc(SCC(=O)NCC3CCCO3)n2)cc1` (stereo not drawn) the AC50 [2] was 5.62 µM [rising, single point].

In the case of `Cc1nn(-c2ccccc2)c2sc(C(=O)NNC(=O)COc3cccc4ccccc34)cc12`, the AC50 [2] is reported as 11.2 µM [falling, partial curve] and the AC50 [1] is reported as 15.8 µM [falling, partial curve].

For `CCCCCCN1C=CC=C/C1=C/C=C(C#N)C#N`, the AC50 [2] was 11.2 µM [rising, single point].

With `O=C(NC1CCCC1)c1ccc(CSCc2ccccc2F)o1` the AC50 [1] was 11.2 µM [rising, single point].

In the case of `NC(=O)c1ccc(Nc2ccc([N+](=O)[O-])cc2[N+](=O)[O-])cc1`, the AC50 [1] is reported as 8.91 µM [falling, partial curve, poor fit].

For `C/C(=N\NC(=S)NCc1ccccc1)c1ccc2ccccc2c1`, the AC50 [2] was 35.5 µM [rising, single point] and the AC50 [1] was 35.5 µM [rising, single point].

For `O=C(CCl)N1N=C(c2ccco2)CC1c1cccs1` (stereo not drawn), the AC50 [2] was 22.4 µM [falling, single point] and the AC50 [1] was 3.98 µM [falling, partial curve].

For `CNS(=O)(=O)c1ccc(NC(=O)C2c3ccccc3Oc3ccccc32)cc1`, the AC50 [2] was 0.126 µM [rising, full curve, poor fit].

With `COc1ccc(-c2cc(CCCC(=O)NCCc3cc(OC)ccc3OC)no2)cc1` the AC50 [1] was 15.8 µM [rising, partial curve].

For `Cc1cccc(/N=C/c2c(O)ccc3oc4c(c23)CCCC4)n1`, the AC50 [1] was 20 µM [rising, single point].

In the case of `CC(=O)N1CCC(N(Cc2ccc(C)o2)C(=O)Nc2ccccc2F)CC1`, the AC50 [2] is reported as 35.5 µM [rising, partial curve] and the AC50 [1] is reported as 35.5 µM [rising, partial curve, poor fit].

In the case of `CN(C)CCNC(=O)/C(=C/c1ccc(-c2ccc(Cl)cc2)o1)NC(=O)c1ccccc1`, the AC50 [2] is reported as 35.5 µM [rising, single point] and the AC50 [1] is reported as 35.5 µM [rising, single point].

For `COC(=O)c1ccc(NC(=O)c2c(NCc3cccc(F)c3)sc3c2CCCC3)cc1`, the AC50 [2] was 1.12 µM [rising, full curve, poor fit] and the AC50 [1] was 14.1 µM [rising, partial curve].

For `Cc1cccc(N2CCN(S(=O)(=O)c3cc(C(=O)Nc4ccc(Oc5ccccc5)cc4)ccc3F)CC2C)c1` (stereo not drawn), the AC50 [2] was 0.631 µM [falling, full curve].

In the case of `COc1ccccc1C(c1c(O)cc(C)n(Cc2ccco2)c1=O)N1CCCCC1` (stereo not drawn), the AC50 [2] is reported as 0.631 µM [rising, partial curve, poor fit].

With `COc1cc(CC(=O)OCC(=O)c2ccc3c(c2)OCCO3)cc(OC)c1OC` the AC50 [2] was 3.16 µM [falling, full curve] and the AC50 [1] was 7.94 µM [falling, partial curve, poor fit].

For `Cc1csc2nc(CNS(=O)(=O)c3ccc(-c4ccccc4)cc3)cn12`, the AC50 [2] was 15.8 µM [rising, partial curve, poor fit] and the AC50 [1] was 17.8 µM [rising, partial curve].

For `O=C(c1ccccc1)c1cc([N+](=O)[O-])ccc1N1CCCC1`, the AC50 [2] was 2.24 µM [rising, full curve] and the AC50 [1] was 17.8 µM [rising, partial curve].
